Data on two sequences can be found in article PMC4595836.

Data set [1] has as its target T1, ScbR (Streptomyces coelicolor A3(2) M145) (UniProt Q7AKF1).
T1 sequence (looked up, limits assumed): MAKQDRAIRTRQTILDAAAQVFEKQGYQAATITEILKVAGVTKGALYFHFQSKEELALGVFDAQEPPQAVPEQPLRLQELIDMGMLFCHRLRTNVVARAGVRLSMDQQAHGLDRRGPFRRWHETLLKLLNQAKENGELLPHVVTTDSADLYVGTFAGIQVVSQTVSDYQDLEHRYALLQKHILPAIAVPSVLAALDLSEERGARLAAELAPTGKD
Put plainly: EMSA. As to conditions: EMSA: 6-12 ng probe, ScbR 0.21-3.77 uM, ScbR2 0.207-4.15 uM; recombinant protein; protein details: His6 (pET23b-ScbR); probe letters rebuilt from the primers and the genome. (Mobility shift assays separate free from complexed probe on a gel.)

The target of data set [2] is T1, ScbR (Streptomyces coelicolor A3(2) M145). Put plainly: footprint. As to conditions: recombinant protein; protein details: His6 (pET23b-ScbR); flanks not given.
For data set [3], the target named is T2, ScbR2 (Streptomyces coelicolor A3(2) M145) (UniProt Q93S03).
T2 sequence (looked up, limits assumed): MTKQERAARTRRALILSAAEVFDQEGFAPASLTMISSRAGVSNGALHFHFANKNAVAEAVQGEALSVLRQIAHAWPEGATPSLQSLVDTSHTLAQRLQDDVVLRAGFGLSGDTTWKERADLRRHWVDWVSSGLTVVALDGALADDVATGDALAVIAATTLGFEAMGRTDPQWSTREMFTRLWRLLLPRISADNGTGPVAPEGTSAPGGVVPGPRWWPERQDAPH
The experiment in a line: footprint. As to conditions: recombinant protein; protein details: His6 (pET23b-ScbR2); flanks not given.

Where a protein sequence is shown, tags need not be part of it. For part of these data: For at least one entry, the source does not settle the construct or the ends of the probe.

Regarding “CGGGGAGCCCTGGATGTGCCGTGCCGGTGGTCTGCCGGGCGCGGCCGAAGCGGGAGCGGCTGAGCCCGTCCTGCAACGTCTCCGTGAAGCCGTCCTCCACGATGGCTCCCAGCCAGGTCATGCCGTGCTGGGGTGCGGGGGCAGAAGTGGCGCTCAACTGTCCTCCTCGATCTCGAAACAGGTCGGTCCAGGGAACATGGGATTAACAAACCTCCTCGCCGGTTTTCAATGGGAGAAGGTGTCCCCACCGTTGAACAACGTGGCGAGGTCGCCCTTGCCGTCTGTTTCGACGGCGGTGTCGAGCTGTTCGGACATGAGGGTGTCGTAGACGGGGCGTTCGACGGAGCGCAGGACGCCGATGGGGGTGTGGTGCAGGGTGTCGGGGTCGGCGAGGC (double strand) [sco6268 promoter (P6268)]”, the binding result in data set [1] is listed as “binds”.

Regarding “TCCAGGGAACATGGGATTAACAAACCTCCTCGCCGGTTTTCAATGGGAGA (double strand) [sco6268]”, the binding result in data set [2] and in data set [3] was “binds” throughout.
